Values are animals surviving of animals treated; these mice carried no tumour. Counts of survivors are from the toxicity check (mostly the fifth day) where no day follows; animals may have died later. Schedules are NCI's codes, taken here to give the interval after Q, in days (D) or hours (H), and the number of doses after X.
System: CD2F1 mice, nontumored, toxicity/survival
Experiment: NCI In Vivo Anticancer Drug Screen. Data for tumor model Nontumored Animals (Toxicity Test) in CD2F1 (CDF1) mice
[1] = dose: 1.0 mg/kg/injection, schedule: Q03HX024 (ip), vehicle: other
[2] = dose: 2.0 mg/kg/injection, schedule: Q01DX009 (oral), vehicle: other
[3] = dose: 2.0 mg/kg/injection, schedule: Q03HX008 (ip), vehicle: other
[4] = dose: 2.0 mg/kg/injection, schedule: Q03HX016 (ip), vehicle: other
[5] = dose: 4.0 mg/kg/injection, schedule: Q01DX001 (oral), vehicle: other
[6] = dose: 4.0 mg/kg/injection, schedule: Q01DX009 (ip), vehicle: other
[7] = dose: 4.0 mg/kg/injection, schedule: Q01DX009 (oral), vehicle: other
[8] = dose: 4.0 mg/kg/injection, schedule: Q01DX009 (sc), vehicle: other
[9] = dose: 8.0 mg/kg/injection, schedule: Q01DX001 (oral), vehicle: other
[10] = dose: 8.0 mg/kg/injection, schedule: Q01DX009 (oral), vehicle: other
[11] = dose: 8.0 mg/kg/injection, schedule: Q04DX003 (ip), vehicle: other
[12] = dose: 16.0 mg/kg/injection, schedule: Q01DX001 (ip), vehicle: other
[13] = dose: 16.0 mg/kg/injection, schedule: Q01DX001 (oral), vehicle: other
[14] = dose: 16.0 mg/kg/injection, schedule: Q01DX001 (sc), vehicle: other
[15] = dose: 16.0 mg/kg/injection, schedule: Q08DX002 (ip), vehicle: other
[16] = dose: 32.0 mg/kg/injection, schedule: Q01DX001 (oral), vehicle: other

Measured: survivor count

Nc1ncnc2c1ccn2C1OC(CO)C(O)C1O (stereo unspecified)
7 of 8: dose: 0.13 mg/kg/injection, schedule: Q03HX024 (ip), vehicle: other | dose: 0.5 mg/kg/injection, schedule: Q03HX008 (ip), vehicle: other | dose: 8.0 mg/kg/injection, schedule: Q08DX002 (ip), vehicle: other | [15]
8 of 8: dose: 0.06 mg/kg/injection, schedule: Q03HX024 (ip), vehicle: other | dose: 0.13 mg/kg/injection, schedule: Q03HX008 (ip), vehicle: other | dose: 0.13 mg/kg/injection, schedule: Q03HX016 (ip), vehicle: other | dose: 0.25 mg/kg/injection, schedule: Q01DX009 (ip), vehicle: other | dose: 0.25 mg/kg/injection, schedule: Q01DX009 (sc), vehicle: other | dose: 0.25 mg/kg/injection, schedule: Q03HX008 (ip), vehicle: other | dose: 0.25 mg/kg/injection, schedule: Q03HX016 (ip), vehicle: other | dose: 0.25 mg/kg/injection, schedule: Q03HX024 (ip), vehicle: other | dose: 0.5 mg/kg/injection, schedule: Q01DX009 (ip), vehicle: other | dose: 0.5 mg/kg/injection, schedule: Q01DX009 (oral), vehicle: other | dose: 0.5 mg/kg/injection, schedule: Q01DX009 (sc), vehicle: other | dose: 0.5 mg/kg/injection, schedule: Q03HX016 (ip), vehicle: other | dose: 0.5 mg/kg/injection, schedule: Q03HX024 (ip), vehicle: other | dose: 0.5 mg/kg/injection, schedule: Q04DX003 (ip), vehicle: other | dose: 1.0 mg/kg/injection, schedule: Q01DX001 (ip), vehicle: other | dose: 1.0 mg/kg/injection, schedule: Q01DX001 (sc), vehicle: other | dose: 1.0 mg/kg/injection, schedule: Q01DX009 (ip), vehicle: other | dose: 1.0 mg/kg/injection, schedule: Q01DX009 (oral), vehicle: other | dose: 1.0 mg/kg/injection, schedule: Q01DX009 (sc), vehicle: other | dose: 1.0 mg/kg/injection, schedule: Q03HX008 (ip), vehicle: other | [1] | dose: 1.0 mg/kg/injection, schedule: Q04DX003 (ip), vehicle: other | dose: 1.0 mg/kg/injection, schedule: Q08DX002 (ip), vehicle: other | dose: 2.0 mg/kg/injection, schedule: Q01DX001 (ip), vehicle: other | dose: 2.0 mg/kg/injection, schedule: Q01DX001 (oral), vehicle: other | dose: 2.0 mg/kg/injection, schedule: Q01DX001 (sc), vehicle: other | dose: 2.0 mg/kg/injection, schedule: Q01DX009 (ip), vehicle: other | [2] | dose: 2.0 mg/kg/injection, schedule: Q01DX009 (sc), vehicle: other | dose: 2.0 mg/kg/injection, schedule: Q04DX003 (ip), vehicle: other | dose: 2.0 mg/kg/injection, schedule: Q08DX002 (ip), vehicle: other | dose: 4.0 mg/kg/injection, schedule: Q01DX001 (ip), vehicle: other | [5] | dose: 4.0 mg/kg/injection, schedule: Q01DX001 (sc), vehicle: other | [6] | [7] | [8] | dose: 4.0 mg/kg/injection, schedule: Q04DX003 (ip), vehicle: other | dose: 4.0 mg/kg/injection, schedule: Q08DX002 (ip), vehicle: other | dose: 8.0 mg/kg/injection, schedule: Q01DX001 (ip), vehicle: other | [9] | dose: 8.0 mg/kg/injection, schedule: Q01DX001 (sc), vehicle: other | [10] | [11] | [13] | [14]
3 of 8: [3] | [4]
6 of 8: dose: 1.0 mg/kg/injection, schedule: Q03HX016 (ip), vehicle: other | [16]
2 of 8: [12]

CC(=O)Oc1cc2c3c(c1)-c1c(ccc(OC(C)=O)c1OC(C)=O)CC3NCC2 (stereo unspecified)
2 of 2: dose: 1.0 mg/kg/injection, schedule: Q01DX001 (ip), vehicle: DMSO | dose: 10.0 mg/kg/injection, schedule: Q01DX001 (ip), vehicle: DMSO
0 of 2: dose: 100.0 mg/kg/injection, schedule: Q01DX001 (ip), vehicle: DMSO

O=C(O)CCCc1ccc(N(CCCl)CCCl)cc1
1 of 8: dose: 64.0 mg/kg/injection, schedule: Q01DX009 (ip), vehicle: other | dose: 128.0 mg/kg/injection, schedule: Q01DX001 (ip), vehicle: other | dose: 128.0 mg/kg/injection, schedule: Q08DX002 (ip), vehicle: other
0 of 8: dose: 128.0 mg/kg/injection, schedule: Q04DX003 (ip), vehicle: other
4 of 8: dose: 64.0 mg/kg/injection, schedule: Q01DX009 (sc), vehicle: other | dose: 128.0 mg/kg/injection, schedule: Q01DX001 (oral), vehicle: other
8 of 8: [1] | [2] | [3] | [4] | dose: 2.0 mg/kg/injection, schedule: Q03HX024 (ip), vehicle: other | [5] | [6] | [7] | [8] | dose: 4.0 mg/kg/injection, schedule: Q03HX008 (ip), vehicle: other | dose: 4.0 mg/kg/injection, schedule: Q03HX016 (ip), vehicle: other | dose: 4.0 mg/kg/injection, schedule: Q03HX024 (ip), vehicle: other | dose: 4.0 mg/kg/injection, schedule: Q04DX003 (oral), vehicle: other | [9] | dose: 8.0 mg/kg/injection, schedule: Q01DX009 (ip), vehicle: other | [10] | dose: 8.0 mg/kg/injection, schedule: Q01DX009 (sc), vehicle: other | dose: 8.0 mg/kg/injection, schedule: Q03HX008 (ip), vehicle: other | dose: 8.0 mg/kg/injection, schedule: Q03HX016 (ip), vehicle: other | dose: 8.0 mg/kg/injection, schedule: Q03HX024 (ip), vehicle: other | [11] | dose: 8.0 mg/kg/injection, schedule: Q04DX003 (oral), vehicle: other | [12] | [13] | [14] | dose: 16.0 mg/kg/injection, schedule: Q01DX009 (ip), vehicle: other | dose: 16.0 mg/kg/injection, schedule: Q01DX009 (oral), vehicle: other | dose: 16.0 mg/kg/injection, schedule: Q01DX009 (sc), vehicle: other | dose: 16.0 mg/kg/injection, schedule: Q03HX008 (ip), vehicle: other | dose: 16.0 mg/kg/injection, schedule: Q03HX016 (ip), vehicle: other | dose: 16.0 mg/kg/injection, schedule: Q03HX024 (ip), vehicle: other | dose: 16.0 mg/kg/injection, schedule: Q04DX003 (ip), vehicle: other | dose: 16.0 mg/kg/injection, schedule: Q04DX003 (oral), vehicle: other | [15] | dose: 32.0 mg/kg/injection, schedule: Q01DX001 (ip), vehicle: other | [16] | dose: 32.0 mg/kg/injection, schedule: Q01DX001 (sc), vehicle: other | dose: 32.0 mg/kg/injection, schedule: Q01DX009 (ip), vehicle: other | dose: 32.0 mg/kg/injection, schedule: Q01DX009 (oral), vehicle: other | dose: 32.0 mg/kg/injection, schedule: Q01DX009 (sc), vehicle: other | dose: 32.0 mg/kg/injection, schedule: Q04DX003 (ip), vehicle: other | dose: 32.0 mg/kg/injection, schedule: Q04DX003 (oral), vehicle: other | dose: 32.0 mg/kg/injection, schedule: Q08DX002 (ip), vehicle: other | dose: 64.0 mg/kg/injection, schedule: Q01DX001 (oral), vehicle: other | dose: 64.0 mg/kg/injection, schedule: Q01DX001 (sc), vehicle: other | dose: 64.0 mg/kg/injection, schedule: Q04DX003 (ip), vehicle: other | dose: 64.0 mg/kg/injection, schedule: Q04DX003 (oral), vehicle: other | dose: 64.0 mg/kg/injection, schedule: Q08DX002 (ip), vehicle: other
6 of 8: dose: 64.0 mg/kg/injection, schedule: Q01DX001 (ip), vehicle: other | dose: 64.0 mg/kg/injection, schedule: Q01DX009 (oral), vehicle: other | dose: 128.0 mg/kg/injection, schedule: Q01DX001 (sc), vehicle: other | dose: 128.0 mg/kg/injection, schedule: Q04DX003 (oral), vehicle: other

Source: PubChem BioAssay AID188 (DTP/NCI, 2004)
